Reference: the supplement of paper PMC10849652
Some of the results follow.

Chains of the proteins cited; added tags and fusions are not shown. Lines headed by an entry give the natural chain unless they say otherwise; changes in a name come on top.
UniProt P78417: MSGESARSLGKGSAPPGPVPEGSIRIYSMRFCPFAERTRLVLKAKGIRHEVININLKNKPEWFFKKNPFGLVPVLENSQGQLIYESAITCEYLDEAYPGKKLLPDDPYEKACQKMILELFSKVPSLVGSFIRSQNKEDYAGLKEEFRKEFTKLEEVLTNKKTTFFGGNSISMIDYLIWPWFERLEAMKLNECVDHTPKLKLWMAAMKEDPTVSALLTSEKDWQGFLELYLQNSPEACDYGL
UniProt P08236: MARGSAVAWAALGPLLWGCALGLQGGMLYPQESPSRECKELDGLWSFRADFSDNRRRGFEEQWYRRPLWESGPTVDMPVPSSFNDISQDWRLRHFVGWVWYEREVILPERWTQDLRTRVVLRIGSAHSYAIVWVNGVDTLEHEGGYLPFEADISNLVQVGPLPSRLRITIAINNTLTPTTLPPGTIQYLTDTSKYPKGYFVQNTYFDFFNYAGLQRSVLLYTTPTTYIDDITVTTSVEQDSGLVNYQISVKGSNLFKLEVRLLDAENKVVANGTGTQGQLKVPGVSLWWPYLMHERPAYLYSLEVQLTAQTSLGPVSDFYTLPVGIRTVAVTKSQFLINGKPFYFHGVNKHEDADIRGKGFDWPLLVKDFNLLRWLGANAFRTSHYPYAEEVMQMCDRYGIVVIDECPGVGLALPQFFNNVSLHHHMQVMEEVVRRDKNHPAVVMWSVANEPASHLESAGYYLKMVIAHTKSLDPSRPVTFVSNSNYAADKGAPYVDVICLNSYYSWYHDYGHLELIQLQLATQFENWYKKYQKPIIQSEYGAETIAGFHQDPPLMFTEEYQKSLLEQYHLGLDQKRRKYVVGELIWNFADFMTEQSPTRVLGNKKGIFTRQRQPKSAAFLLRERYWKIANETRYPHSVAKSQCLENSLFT
UniProt Q8IYU2: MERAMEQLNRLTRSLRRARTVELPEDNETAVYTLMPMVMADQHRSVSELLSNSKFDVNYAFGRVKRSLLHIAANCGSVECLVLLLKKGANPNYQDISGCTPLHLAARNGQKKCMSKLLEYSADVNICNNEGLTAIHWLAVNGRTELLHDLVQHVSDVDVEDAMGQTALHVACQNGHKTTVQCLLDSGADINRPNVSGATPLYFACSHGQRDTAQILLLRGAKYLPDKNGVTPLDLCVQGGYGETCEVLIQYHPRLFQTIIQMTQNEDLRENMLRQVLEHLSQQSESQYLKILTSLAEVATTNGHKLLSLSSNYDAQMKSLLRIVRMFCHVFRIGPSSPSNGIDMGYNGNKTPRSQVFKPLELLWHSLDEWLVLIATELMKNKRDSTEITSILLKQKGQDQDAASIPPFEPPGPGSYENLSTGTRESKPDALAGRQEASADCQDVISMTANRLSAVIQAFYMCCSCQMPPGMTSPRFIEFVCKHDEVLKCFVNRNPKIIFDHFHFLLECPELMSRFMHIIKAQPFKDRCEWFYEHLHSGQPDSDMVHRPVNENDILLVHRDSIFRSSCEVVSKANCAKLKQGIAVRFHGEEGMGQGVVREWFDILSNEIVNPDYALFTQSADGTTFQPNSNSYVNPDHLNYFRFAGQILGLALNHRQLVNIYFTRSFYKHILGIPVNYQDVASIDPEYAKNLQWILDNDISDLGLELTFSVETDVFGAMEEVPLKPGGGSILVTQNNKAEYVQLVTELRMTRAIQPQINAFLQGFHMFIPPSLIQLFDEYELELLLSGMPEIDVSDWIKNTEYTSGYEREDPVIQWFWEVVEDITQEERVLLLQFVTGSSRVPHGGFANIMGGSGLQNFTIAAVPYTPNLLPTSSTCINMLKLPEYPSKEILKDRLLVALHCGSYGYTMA
UniProt P00390: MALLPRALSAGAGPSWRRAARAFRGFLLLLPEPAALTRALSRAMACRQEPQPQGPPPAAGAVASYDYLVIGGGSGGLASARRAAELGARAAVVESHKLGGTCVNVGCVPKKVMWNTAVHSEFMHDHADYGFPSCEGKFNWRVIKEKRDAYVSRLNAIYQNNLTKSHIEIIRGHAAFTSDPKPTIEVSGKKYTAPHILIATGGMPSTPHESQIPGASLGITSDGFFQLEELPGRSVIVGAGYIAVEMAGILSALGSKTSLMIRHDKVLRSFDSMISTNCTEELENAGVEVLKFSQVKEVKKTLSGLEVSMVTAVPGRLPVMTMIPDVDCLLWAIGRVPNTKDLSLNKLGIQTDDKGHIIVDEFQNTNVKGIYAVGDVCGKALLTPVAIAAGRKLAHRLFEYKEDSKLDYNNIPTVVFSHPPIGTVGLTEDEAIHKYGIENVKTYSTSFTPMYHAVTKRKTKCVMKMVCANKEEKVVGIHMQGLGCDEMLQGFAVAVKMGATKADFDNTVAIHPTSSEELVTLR
UniProt Q969F1: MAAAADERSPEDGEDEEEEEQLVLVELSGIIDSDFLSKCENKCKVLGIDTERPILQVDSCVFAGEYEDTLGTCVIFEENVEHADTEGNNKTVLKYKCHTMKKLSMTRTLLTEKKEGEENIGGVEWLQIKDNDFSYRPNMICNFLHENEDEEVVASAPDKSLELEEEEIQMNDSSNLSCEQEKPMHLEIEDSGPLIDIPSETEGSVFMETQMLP
UniProt P69892: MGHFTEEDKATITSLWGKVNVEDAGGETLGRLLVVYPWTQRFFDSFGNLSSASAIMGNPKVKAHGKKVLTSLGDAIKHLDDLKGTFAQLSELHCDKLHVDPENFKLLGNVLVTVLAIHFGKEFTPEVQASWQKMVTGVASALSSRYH
UniProt Q9Y5Q8: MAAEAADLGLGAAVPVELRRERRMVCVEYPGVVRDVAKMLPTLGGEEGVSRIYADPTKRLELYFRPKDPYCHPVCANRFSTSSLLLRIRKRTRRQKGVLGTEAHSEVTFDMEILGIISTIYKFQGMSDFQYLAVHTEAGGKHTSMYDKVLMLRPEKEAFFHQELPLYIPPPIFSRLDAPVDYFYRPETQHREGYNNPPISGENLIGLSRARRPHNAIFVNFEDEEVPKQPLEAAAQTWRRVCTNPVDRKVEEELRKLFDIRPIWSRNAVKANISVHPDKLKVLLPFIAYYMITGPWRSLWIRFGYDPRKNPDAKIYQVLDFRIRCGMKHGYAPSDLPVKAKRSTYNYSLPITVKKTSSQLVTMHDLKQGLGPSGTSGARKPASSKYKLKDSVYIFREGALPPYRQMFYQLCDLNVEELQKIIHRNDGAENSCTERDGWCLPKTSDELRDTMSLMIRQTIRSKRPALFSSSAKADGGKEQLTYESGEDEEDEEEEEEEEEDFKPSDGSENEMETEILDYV
UniProt Q9UBQ7: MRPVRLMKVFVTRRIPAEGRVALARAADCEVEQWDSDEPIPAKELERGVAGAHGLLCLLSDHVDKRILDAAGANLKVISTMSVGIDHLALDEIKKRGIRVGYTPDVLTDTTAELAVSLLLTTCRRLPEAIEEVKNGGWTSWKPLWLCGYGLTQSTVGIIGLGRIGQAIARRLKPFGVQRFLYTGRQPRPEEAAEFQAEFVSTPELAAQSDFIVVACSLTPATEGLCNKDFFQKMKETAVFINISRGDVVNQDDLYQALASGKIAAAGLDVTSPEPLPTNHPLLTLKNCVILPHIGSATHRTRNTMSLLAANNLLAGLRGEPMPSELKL
UniProt Q9Y5Q9: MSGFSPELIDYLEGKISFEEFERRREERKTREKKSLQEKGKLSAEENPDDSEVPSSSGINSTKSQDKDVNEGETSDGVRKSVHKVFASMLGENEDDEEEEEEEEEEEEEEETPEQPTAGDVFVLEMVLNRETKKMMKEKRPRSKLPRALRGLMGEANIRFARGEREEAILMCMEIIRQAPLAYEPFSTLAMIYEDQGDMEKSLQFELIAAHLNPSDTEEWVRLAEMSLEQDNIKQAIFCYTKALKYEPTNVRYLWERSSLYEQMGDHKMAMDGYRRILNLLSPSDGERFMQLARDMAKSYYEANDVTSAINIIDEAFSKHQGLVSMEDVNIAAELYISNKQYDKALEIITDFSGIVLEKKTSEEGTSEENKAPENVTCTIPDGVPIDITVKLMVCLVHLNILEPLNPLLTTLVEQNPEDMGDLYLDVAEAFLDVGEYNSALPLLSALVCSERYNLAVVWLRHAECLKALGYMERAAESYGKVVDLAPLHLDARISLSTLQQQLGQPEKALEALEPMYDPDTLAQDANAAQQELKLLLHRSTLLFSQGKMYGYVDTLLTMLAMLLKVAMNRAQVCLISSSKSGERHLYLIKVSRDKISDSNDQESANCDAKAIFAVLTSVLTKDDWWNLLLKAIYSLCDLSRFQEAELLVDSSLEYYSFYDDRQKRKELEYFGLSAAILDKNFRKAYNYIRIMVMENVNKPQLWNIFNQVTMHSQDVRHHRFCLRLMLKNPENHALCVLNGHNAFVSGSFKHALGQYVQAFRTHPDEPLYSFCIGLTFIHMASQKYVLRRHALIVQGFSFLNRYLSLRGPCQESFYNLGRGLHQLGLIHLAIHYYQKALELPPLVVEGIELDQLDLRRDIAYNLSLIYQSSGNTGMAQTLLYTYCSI
UniProt Q9NVX0: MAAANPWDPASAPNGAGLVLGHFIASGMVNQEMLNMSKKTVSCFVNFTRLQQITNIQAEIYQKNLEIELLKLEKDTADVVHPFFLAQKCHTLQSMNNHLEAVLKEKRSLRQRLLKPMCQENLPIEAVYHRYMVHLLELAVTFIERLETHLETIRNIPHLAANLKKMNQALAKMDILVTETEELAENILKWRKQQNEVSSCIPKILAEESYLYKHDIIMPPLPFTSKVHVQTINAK
UniProt O75791: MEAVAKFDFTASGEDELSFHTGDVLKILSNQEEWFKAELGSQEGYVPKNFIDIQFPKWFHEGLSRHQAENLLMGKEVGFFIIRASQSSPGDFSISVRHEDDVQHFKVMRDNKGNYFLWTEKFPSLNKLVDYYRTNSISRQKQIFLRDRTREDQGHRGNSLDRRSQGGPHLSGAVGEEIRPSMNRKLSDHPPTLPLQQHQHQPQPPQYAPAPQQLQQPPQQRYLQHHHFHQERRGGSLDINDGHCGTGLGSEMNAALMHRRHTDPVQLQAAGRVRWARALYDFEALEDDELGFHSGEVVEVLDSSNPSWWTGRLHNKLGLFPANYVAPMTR
UniProt Q7Z4Q2: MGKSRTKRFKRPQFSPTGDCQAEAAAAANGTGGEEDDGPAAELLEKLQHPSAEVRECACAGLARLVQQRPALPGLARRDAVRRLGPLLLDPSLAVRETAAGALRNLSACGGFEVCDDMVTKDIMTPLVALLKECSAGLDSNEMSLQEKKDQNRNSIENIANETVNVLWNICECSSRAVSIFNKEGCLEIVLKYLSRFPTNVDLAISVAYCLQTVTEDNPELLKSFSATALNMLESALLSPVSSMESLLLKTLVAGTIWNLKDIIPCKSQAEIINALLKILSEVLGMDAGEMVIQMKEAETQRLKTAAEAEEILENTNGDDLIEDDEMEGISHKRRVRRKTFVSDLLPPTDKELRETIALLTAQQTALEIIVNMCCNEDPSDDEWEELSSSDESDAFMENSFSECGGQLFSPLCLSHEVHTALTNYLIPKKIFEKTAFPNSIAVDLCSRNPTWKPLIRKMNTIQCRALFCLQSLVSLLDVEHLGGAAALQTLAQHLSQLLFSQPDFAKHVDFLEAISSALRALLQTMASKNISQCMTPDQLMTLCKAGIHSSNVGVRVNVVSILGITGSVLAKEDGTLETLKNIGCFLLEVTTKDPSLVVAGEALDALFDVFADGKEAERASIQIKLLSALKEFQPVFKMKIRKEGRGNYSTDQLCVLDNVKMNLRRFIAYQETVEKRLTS
UniProt Q8WUA4: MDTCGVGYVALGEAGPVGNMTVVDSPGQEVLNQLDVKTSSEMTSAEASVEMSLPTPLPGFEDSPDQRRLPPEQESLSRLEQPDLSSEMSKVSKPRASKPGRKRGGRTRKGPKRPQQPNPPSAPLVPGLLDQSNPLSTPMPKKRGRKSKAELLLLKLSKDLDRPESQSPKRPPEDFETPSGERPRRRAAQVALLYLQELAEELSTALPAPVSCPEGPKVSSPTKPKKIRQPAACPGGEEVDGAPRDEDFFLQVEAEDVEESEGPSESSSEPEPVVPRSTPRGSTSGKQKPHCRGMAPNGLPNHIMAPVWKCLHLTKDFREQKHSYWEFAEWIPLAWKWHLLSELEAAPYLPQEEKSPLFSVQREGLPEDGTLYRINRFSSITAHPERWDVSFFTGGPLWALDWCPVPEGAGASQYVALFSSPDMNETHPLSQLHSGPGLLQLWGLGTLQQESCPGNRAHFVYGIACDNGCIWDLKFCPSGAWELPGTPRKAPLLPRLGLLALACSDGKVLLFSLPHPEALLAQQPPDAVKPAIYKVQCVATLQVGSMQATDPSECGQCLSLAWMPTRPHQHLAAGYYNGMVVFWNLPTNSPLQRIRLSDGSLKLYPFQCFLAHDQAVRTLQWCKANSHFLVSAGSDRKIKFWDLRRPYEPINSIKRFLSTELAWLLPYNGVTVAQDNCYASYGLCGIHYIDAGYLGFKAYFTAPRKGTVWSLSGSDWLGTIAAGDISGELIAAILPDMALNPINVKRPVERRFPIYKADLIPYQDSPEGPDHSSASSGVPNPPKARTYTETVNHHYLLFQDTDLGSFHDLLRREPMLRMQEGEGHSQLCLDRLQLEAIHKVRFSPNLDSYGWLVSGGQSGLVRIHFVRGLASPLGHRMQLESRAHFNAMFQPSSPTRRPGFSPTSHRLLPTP

Key:
Assay in all cases: log2 fold change, soluble protein after heating vs DMSO (PISA); higher = thermal stabilisation; K562 lysate, 10 uM; active = over 0.2 and 3.5 SD of the protein, either way, in both replicates (recomputed)
erlotinib = compound: C#Cc1cccc(Nc2ncnc3cc(OCCOC)c(OCCOC)cc23)c1 [erlotinib]
Outline: (§1)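 K562 pellets were dounce-homogenised in PBS pH 7.4 with 1 mM MgCl2, and the crude extract at 1 mg/mL protein was treated with 10 μM compound for 30 min. Aliquots were heated for 3 min across 48°C-58°C, pooled, and brought to 0.5% NP-40 at 4°C; soluble protein was the supernatant after 21,000xg for 90 min. Soluble protein was quantified by TMTpro 16plex LC-MS/MS with channel sums equalised, and reported as log2 fold change in thermal stability against DMSO controls, with values from duplicates.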

[1] = compound: C/C(=N\NC(=O)C1=CC(=CC=C1)S(=O)(=O)N2CCOCC2)/C3=C(C=CC(=C3)Cl)O
Outline: as §1

[2] = compound: C1=CC(=CC=C1C2=NC3=C(N2)C=C(C=C3)C(=O)N)OC4=CC=C(C=C4)Cl
Outline: as §1

[3] = compound: C1=CC2=C(C=CC(=C2)/C=C\3/C(=O)NC(=NCC4=CC=CS4)S3)N=C1
Outline: as §1

[4] = compound: C1=CC2=NC=CN=C2C=C1/C=C/3\C(=O)NC(=O)S3
Outline: as §1

[5] = compound: C1=CC=C(C=C1)C2=NC(=C(N2)C3=CC=NC=C3)C4=CC(=C(C=C4)Cl)O
Outline: as §1

[6] = compound: C1=CC=C2C(=C1)C3=NNC4=CC=CC(=C43)C2=O
Outline: as §1

[7] = compound: C1CCN(C1)C(=O)NC2=CC=CC(=C2)NC3=NC=C(C(=N3)NCCC4=CN=CN4)Br
Outline: as §1

[8] = compound: C1CN(CCC1(CC2=CC=C(C=C2)Cl)N)C3=NC=NC4=C3C=CN4
Outline: as §1

IRAK-1-4 Inhibitor I = compound: C1COCCN1CCN2C3=CC=CC=C3N=C2NC(=O)C4=CC(=CC=C4)[N+](=O)[O-] [IRAK-1-4 Inhibitor I]
Outline: as §1

ibrutinib = compound: C=CC(=O)N1CCC[C@@H](n2nc(-c3ccc(Oc4ccccc4)cc3)c3c(N)ncnc32)C1 [ibrutinib]
Outline: as §1

[9] = compound: CC(=O)c1cnc2ccc(-c3cc(Cl)c(O)c(Cl)c3)nc2c1N[C@H]1CC[C@H](CN(C)C)CC1
Outline: as §1

ralimetinib = compound: CC(C)(C)Cn1c(N)nc2ccc(-c3[nH]c(C(C)(C)C)nc3-c3ccc(F)cc3)nc21 [ralimetinib]
Outline: as §1

[10] = compound: CC(C)(O)CC(=O)NCCn1ccc2ncnc(Nc3ccc(Oc4cccc(C(F)(F)F)c4)c(Cl)c3)c21
Outline: as §1

[11] = compound: CC(C)C1=C2N=C(C=C(N2N=C1)NCC3=CC=CC=C3)NCCCCCCN
Outline: as §1

[12] = compound: CC1=C(C(CC(=O)N1)C2=CC=C(C=C2)C(F)(F)F)C(=O)NC3=C(C=C4C(=C3)C=NN4)F
Outline: as §1

[13] = compound: CC1=C(C2=C(C=C1)C(=O)C3=CC=CC=C3N2CCCN)C
Outline: as §1

[14] = compound: CC1=C(C=C(C=C1)NC(=O)C2=CC(=CC=C2)C(C)(C)C#N)NC3=CC4=C(C=C3)N=CN(C4=O)C
Outline: as §1

[15] = compound: CC1=C(C=C(C=C1)NC(=O)C2=CC(=CC=C2)N(C)C)NC(=O)C3=CC=C(C=C3)O
Outline: as §1

[16] = compound: CC1=CC=C(C=C1)SC2=C3C=C(SC3=CN=C2)C(=O)N
Outline: as §1

Measured: log2 fold change

GSTO1 (UniProt P78417)
inactive: erlotinib -0.013 | [1] -0.039 | [2] -0.004 | [3] -0.031 | [4] -0.004 | [5] 0.011 | [6] 0.053 | [7] 0.035 | [8] -0.014 | IRAK-1-4 Inhibitor I -0.019 | ibrutinib -0.036 | [9] 0.035 | ralimetinib -0.007 | [10] 0.031 | [11] -0.009 | [12] -0.02 | [13] 0.015 | [14] -0.019 | [15] -0.003 | [16] 0.018

GUSB (UniProt P08236)
inactive: erlotinib -0.053 | [1] -0.043 | [2] 0.135 | [3] -0.072 | [4] -0.041 | [5] -0.058 | [6] -0.072 | [7] -0.003 | [8] 0.055 | IRAK-1-4 Inhibitor I 0.066 | ibrutinib 0.06 | [9] -0.099 | ralimetinib 0.056 | [10] -0.097 | [11] 0.099 | [12] -0.075 | [13] 0.069 | [14] 0.044 | [15] -0.029 | [16] -0.088

UniProt H0YHG0
inactive: erlotinib -0.003 | [1] -0.152 | [2] 0.015 | [3] -0.01 | [4] -0.019 | [5] 0.023 | [6] -0.017 | [7] 0.023 | [8] -0.008 | IRAK-1-4 Inhibitor I 0.011 | ibrutinib -0.01 | [9] -0.011 | ralimetinib 0.014 | [10] 0.001 | [11] -0.025 | [12] -0.007 | [13] 0.013 | [14] 0.046 | [15] -0.003 | [16] -0.015

HACE1 (UniProt Q8IYU2)
inactive: erlotinib 0.033 | [1] 0.083 | [2] 0.106 | [3] -0.019 | [4] 0.017 | [5] -0.189 | [6] -0.174 | [7] -0.069 | [8] 0.055 | IRAK-1-4 Inhibitor I 0.032 | ibrutinib -0.034 | [9] -0.062 | ralimetinib 0 | [10] -0.056 | [11] 0.041 | [12] -0.042 | [13] -0.042 | [14] -0.07 | [15] 0.08 | [16] 0.01

GSR (UniProt P00390)
inactive: erlotinib 0.014 | [1] -0.026 | [2] -0.008 | [3] 0.019 | [4] 0.049 | [5] -0.122 | [6] -0.016 | [7] 0.032 | [8] -0.019 | IRAK-1-4 Inhibitor I 0.044 | ibrutinib 0.032 | [9] -0.034 | ralimetinib 0.016 | [10] 0.024 | [11] -0.012 | [12] -0.049 | [13] -0.138 | [14] 0.019 | [15] -0.016 | [16] 0.022

GTF3C6 (UniProt Q969F1)
inactive: erlotinib 0.017 | [1] 0.014 | [2] 0.064 | [3] 0.014 | [4] 0.029 | [5] 0.035 | [6] 0.046 | [7] -0.074 | [8] 0.058 | IRAK-1-4 Inhibitor I 0.023 | ibrutinib 0.083 | [9] -0.019 | ralimetinib 0 | [10] -0.083 | [11] 0.029 | [12] 0.02 | [13] -0.009 | [14] 0.054 | [15] 0.023 | [16] -0.036

HBG2 (UniProt P69892)
inactive: erlotinib 0.015 | [1] 0.034 | [2] -0.002 | [3] 0.045 | [4] 0.007 | [5] -0.001 | [6] 0.021 | [7] 0.005 | [8] 0.04 | IRAK-1-4 Inhibitor I -0.022 | ibrutinib 0.043 | [9] -0.025 | ralimetinib -0.003 | [10] -0.034 | [11] -0.029 | [12] -0.031 | [13] -0.024 | [14] 0.028 | [15] -0.006 | [16] 0.002

GTF3C5 isoform 3 (UniProt Q9Y5Q8)
inactive: erlotinib -0.002 | [1] -0.042 | [2] -0.01 | [3] 0.007 | [4] -0.024 | [5] -0.019 | [6] -0.03 | [7] 0.072 | [8] 0.019 | IRAK-1-4 Inhibitor I -0.015 | ibrutinib 0.029 | [9] 0.034 | ralimetinib 0.009 | [10] 0.005 | [11] -0.016 | [12] 0.025 | [13] -0.007 | [14] 0.015 | [15] 0.003 | [16] 0.008

GRHPR (UniProt Q9UBQ7)
inactive: erlotinib 0.021 | [1] -0.002 | [2] 0.044 | [3] -0.008 | [4] -0.009 | [5] -0.032 | [6] -0.014 | [7] 0.015 | [8] 0.039 | IRAK-1-4 Inhibitor I 0.008 | ibrutinib 0.009 | [9] 0.001 | ralimetinib 0.017 | [10] -0.013 | [11] -0.001 | [12] -0.005 | [13] -0.001 | [14] -0.002 | [15] 0.012 | [16] 0.019

GTF3C3 (UniProt Q9Y5Q9)
inactive: erlotinib 0.016 | [1] 0.013 | [2] -0.013 | [3] 0.025 | [4] 0 | [5] -0.005 | [6] -0.065 | [7] 0 | [8] 0.031 | IRAK-1-4 Inhibitor I -0.001 | ibrutinib 0.033 | [9] -0.001 | ralimetinib 0.027 | [10] -0.005 | [11] 0.02 | [12] -0.003 | [13] -0.112 | [14] 0.014 | [15] 0.047 | [16] -0.007

HCCS (UniProt P53701)
inactive: erlotinib -0.033 | [1] 0.062 | [2] -0.055 | [3] -0.006 | [4] -0.003 | [5] -0.023 | [6] -0.03 | [7] 0.024 | [8] 0.004 | IRAK-1-4 Inhibitor I 0.05 | ibrutinib 0.005 | [9] -0.021 | ralimetinib 0.024 | [10] -0.057 | [11] 0.001 | [12] 0.004 | [13] 0.004 | [14] -0.008 | [15] 0.041 | [16] 0.006

HAUS2 (UniProt Q9NVX0)
inactive: erlotinib 0 | [1] 0.045 | [2] -0.12 | [3] 0.116 | [4] -0.02 | [5] 0.03 | [6] 0.031 | [7] -0.015 | [8] 0.026 | IRAK-1-4 Inhibitor I 0.003 | ibrutinib 0.145 | [9] 0.1 | ralimetinib 0.054 | [10] 0.058 | [11] 0.003 | [12] 0.026 | [13] -0.079 | [14] -0.017 | [15] 0.023 | [16] -0.021

GRAP2 (UniProt O75791)
inactive: erlotinib 0.044 | [1] 0.038 | [2] 0.052 | [3] 0.024 | [4] 0.018 | [5] -0.004 | [6] -0.014 | [7] -0.004 | [8] 0 | IRAK-1-4 Inhibitor I -0.008 | ibrutinib 0.017 | [9] 0.016 | ralimetinib 0.024 | [10] -0.017 | [11] 0.008 | [12] -0.011 | [13] 0.003 | [14] -0.012 | [15] 0.03 | [16] 0.018

H2AFX (UniProt P16104)
inactive: erlotinib -0.013 | [1] -0.089 | [2] -0.015 | [3] 0.007 | [4] -0.052 | [5] 0.052 | [6] -0.031 | [7] 0.047 | [8] -0.024 | IRAK-1-4 Inhibitor I -0.016 | ibrutinib -0.046 | [9] -0.028 | ralimetinib -0.05 | [10] -0.051 | [11] 0.069 | [12] -0.009 | [13] 0.067 | [14] 0.027 | [15] 0.007 | [16] -0.029

Quoted from the listing (3 entries):
GRHPR (UniProt Q9UBQ7)
inactive: erlotinib 0.021 | [1] -0.002 | [2] 0.044 | [3] -0.008 | [4] -0.009 | [5] -0.032 | [6] -0.014 | [7] 0.015 | [8] 0.039 | IRAK-1-4 Inhibitor I 0.008 | ibrutinib 0.009 | [9] 0.001 | ralimetinib 0.017 | [10] -0.013 | [11] -0.001 | [12] -0.005 | [13] -0.001 | [14] -0.002 | [15] 0.012 | [16] 0.019

GTF3C3 (UniProt Q9Y5Q9)
inactive: erlotinib 0.016 | [1] 0.013 | [2] -0.013 | [3] 0.025 | [4] 0 | [5] -0.005 | [6] -0.065 | [7] 0 | [8] 0.031 | IRAK-1-4 Inhibitor I -0.001 | ibrutinib 0.033 | [9] -0.001 | ralimetinib 0.027 | [10] -0.005 | [11] 0.02 | [12] -0.003 | [13] -0.112 | [14] 0.014 | [15] 0.047 | [16] -0.007

HCCS (UniProt P53701)
inactive: erlotinib -0.033 | [1] 0.062 | [2] -0.055 | [3] -0.006 | [4] -0.003 | [5] -0.023 | [6] -0.03 | [7] 0.024 | [8] 0.004 | IRAK-1-4 Inhibitor I 0.05 | ibrutinib 0.005 | [9] -0.021 | ralimetinib 0.024 | [10] -0.057 | [11] 0.001 | [12] 0.004 | [13] 0.004 | [14] -0.008 | [15] 0.041 | [16] 0.006

More entries follow:

HEATR3 (UniProt Q7Z4Q2)
inactive: erlotinib 0.002 | [1] 0.029 | [2] -0.064 | [3] -0.015 | [4] 0.02 | [5] -0.022 | [6] -0.052 | [7] -0.002 | [8] 0.006 | IRAK-1-4 Inhibitor I -0.001 | ibrutinib 0.026 | [9] -0.008 | ralimetinib 0.037 | [10] -0.048 | [11] -0.01 | [12] -0.001 | [13] -0.015 | [14] 0.004 | [15] -0.027 | [16] 0.023

GTF3C2 (UniProt Q8WUA4)
inactive: erlotinib 0.019 | [1] 0.042 | [2] -0.006 | [3] 0.018 | [4] -0.048 | [5] 0.03 | [6] -0.03 | [7] -0.004 | [8] 0.03 | IRAK-1-4 Inhibitor I 0.041 | ibrutinib 0.018 | [9] -0.047 | ralimetinib 0.015 | [10] -0.031 | [11] -0.024 | [12] -0.005 | [13] -0.033 | [14] 0.019 | [15] 0.041 | [16] -0.039
